This is one part of the list.
Experiments:
Assay in all cases: log2 fold change, soluble protein after heating vs DMSO (PISA); higher = thermal stabilisation; K562 lysate, 10 uM; active = over 0.2 and 3.5 SD of the protein, either way, in both replicates (recomputed)
vorinostat = compound: O=C(CCCCCCC(=O)Nc1ccccc1)NO [vorinostat]
Procedure, shortened: (§1)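 K562 pellets were dounce-homogenised in PBS pH 7.4 containing 1 mM MgCl2, and the crude extract, at 1 mg/mL protein, was exposed to 10 μM compound for 30 min. Aliquots were heated for 3 min across 48°C-58°C, pooled, brought to 0.5% NP-40 at 4°C and spun at 21,000xg for 90 min, with the supernatant taken as soluble protein. TMTpro 16plex LC-MS/MS with equalised channel sums quantified that protein. Values are log-two fold changes in thermal stability relative to solvent controls, taken from duplicates.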

Chains of the proteins cited; added tags and fusions are not shown. Lines headed by an entry give the natural chain unless they say otherwise; changes in a name come on top.
UniProt O14503, whole entry, looked up: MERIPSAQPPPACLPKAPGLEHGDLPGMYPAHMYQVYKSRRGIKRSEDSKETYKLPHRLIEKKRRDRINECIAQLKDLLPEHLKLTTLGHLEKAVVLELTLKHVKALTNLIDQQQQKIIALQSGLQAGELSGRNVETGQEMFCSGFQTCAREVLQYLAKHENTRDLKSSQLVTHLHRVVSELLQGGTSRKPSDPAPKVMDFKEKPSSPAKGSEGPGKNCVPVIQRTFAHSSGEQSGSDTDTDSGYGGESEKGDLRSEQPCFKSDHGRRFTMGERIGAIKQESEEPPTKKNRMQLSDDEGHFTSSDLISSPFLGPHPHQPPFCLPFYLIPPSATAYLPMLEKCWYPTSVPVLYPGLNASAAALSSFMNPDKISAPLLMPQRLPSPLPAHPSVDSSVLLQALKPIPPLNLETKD
UniProt Q14201: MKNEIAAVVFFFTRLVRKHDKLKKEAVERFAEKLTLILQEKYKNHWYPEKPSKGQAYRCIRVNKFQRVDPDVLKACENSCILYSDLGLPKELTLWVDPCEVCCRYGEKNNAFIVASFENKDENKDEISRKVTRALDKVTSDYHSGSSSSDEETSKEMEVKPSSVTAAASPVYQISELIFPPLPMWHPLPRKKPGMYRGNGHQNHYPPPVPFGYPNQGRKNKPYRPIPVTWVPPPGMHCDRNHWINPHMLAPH
UniProt Q9BX70: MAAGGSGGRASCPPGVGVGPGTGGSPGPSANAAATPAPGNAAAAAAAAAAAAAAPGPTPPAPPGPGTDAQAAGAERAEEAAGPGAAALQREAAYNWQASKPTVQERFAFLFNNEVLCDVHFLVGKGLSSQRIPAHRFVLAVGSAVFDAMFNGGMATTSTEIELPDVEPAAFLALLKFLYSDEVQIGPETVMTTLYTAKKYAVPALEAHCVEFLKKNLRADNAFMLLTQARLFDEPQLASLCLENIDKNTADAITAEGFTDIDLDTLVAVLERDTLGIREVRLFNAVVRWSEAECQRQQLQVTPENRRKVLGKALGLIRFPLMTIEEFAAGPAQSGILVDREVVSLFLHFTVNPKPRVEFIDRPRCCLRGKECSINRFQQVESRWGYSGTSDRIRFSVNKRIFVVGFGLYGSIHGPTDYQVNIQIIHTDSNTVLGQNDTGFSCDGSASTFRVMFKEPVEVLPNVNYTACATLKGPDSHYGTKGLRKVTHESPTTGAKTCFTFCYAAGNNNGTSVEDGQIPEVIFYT
UniProt Q8N9N5: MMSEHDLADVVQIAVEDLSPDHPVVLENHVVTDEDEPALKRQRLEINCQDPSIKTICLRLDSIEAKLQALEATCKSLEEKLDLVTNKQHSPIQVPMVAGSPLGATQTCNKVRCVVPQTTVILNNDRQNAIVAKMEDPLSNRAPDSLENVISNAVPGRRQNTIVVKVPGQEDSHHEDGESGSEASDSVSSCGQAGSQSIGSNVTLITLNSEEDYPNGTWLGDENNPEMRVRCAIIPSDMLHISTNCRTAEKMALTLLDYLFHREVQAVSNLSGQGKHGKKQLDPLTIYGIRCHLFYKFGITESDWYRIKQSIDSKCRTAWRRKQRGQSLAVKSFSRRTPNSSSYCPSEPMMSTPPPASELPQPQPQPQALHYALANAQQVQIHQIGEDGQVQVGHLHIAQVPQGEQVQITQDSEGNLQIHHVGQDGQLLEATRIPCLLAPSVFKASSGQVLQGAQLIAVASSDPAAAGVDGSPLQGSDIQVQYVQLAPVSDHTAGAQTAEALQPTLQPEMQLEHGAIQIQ
UniProt Q96DR5: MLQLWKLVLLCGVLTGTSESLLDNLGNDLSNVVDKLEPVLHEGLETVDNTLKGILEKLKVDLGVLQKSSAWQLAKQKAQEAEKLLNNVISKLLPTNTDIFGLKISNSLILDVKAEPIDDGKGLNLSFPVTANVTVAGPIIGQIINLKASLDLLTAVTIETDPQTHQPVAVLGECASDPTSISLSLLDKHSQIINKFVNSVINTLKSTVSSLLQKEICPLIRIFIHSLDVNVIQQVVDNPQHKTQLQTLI
UniProt Q96IK1: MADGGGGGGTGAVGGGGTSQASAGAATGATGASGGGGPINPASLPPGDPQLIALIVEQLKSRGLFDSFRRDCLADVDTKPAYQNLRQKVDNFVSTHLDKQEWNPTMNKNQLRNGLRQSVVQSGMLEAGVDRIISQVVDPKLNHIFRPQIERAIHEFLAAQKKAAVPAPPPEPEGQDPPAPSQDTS
UniProt Q9NZM4: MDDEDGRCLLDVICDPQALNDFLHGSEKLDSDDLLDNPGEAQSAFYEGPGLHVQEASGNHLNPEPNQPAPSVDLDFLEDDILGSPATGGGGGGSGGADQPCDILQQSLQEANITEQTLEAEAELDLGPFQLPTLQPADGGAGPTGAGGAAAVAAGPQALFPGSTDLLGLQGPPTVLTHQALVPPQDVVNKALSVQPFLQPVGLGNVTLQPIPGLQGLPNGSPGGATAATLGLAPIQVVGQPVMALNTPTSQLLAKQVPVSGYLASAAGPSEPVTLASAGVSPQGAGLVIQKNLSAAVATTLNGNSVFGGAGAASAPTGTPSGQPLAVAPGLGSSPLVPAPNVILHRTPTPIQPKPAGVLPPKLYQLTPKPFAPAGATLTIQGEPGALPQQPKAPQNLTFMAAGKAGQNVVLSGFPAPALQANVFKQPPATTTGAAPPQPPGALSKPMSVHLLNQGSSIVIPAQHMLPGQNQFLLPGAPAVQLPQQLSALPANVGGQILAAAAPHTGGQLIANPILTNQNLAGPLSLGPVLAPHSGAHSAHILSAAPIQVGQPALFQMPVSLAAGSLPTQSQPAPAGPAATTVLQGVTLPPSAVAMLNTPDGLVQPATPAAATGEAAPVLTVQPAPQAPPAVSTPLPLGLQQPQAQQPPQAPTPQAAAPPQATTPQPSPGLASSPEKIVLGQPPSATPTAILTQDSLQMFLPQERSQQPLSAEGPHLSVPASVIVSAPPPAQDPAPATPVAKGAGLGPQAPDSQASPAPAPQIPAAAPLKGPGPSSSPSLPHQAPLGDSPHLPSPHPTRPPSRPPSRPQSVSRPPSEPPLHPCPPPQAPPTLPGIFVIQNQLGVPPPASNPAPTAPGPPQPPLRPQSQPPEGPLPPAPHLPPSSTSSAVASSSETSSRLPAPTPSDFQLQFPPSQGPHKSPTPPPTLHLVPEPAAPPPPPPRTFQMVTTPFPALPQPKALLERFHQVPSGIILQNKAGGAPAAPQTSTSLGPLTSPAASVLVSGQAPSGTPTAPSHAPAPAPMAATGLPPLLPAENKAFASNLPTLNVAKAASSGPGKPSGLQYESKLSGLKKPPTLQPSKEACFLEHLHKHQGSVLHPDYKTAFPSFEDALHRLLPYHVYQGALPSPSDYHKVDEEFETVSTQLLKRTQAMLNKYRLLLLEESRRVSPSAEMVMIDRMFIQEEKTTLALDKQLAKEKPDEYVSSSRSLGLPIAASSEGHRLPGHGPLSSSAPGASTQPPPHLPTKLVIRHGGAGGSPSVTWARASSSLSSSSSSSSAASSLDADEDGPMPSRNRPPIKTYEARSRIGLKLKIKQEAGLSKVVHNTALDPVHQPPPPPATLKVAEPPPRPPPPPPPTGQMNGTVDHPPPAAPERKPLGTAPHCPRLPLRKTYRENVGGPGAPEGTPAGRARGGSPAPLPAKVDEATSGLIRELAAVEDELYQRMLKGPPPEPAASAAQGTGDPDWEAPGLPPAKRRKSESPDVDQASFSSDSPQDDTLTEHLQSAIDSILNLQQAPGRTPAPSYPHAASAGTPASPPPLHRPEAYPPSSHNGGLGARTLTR
UniProt Q4VC05, whole entry, looked up: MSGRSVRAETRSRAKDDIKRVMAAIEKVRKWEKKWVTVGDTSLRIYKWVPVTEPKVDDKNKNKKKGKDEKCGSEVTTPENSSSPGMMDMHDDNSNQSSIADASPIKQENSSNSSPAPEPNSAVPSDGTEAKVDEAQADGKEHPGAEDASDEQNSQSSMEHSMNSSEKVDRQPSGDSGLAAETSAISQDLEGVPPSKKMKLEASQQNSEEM
UniProt O43505: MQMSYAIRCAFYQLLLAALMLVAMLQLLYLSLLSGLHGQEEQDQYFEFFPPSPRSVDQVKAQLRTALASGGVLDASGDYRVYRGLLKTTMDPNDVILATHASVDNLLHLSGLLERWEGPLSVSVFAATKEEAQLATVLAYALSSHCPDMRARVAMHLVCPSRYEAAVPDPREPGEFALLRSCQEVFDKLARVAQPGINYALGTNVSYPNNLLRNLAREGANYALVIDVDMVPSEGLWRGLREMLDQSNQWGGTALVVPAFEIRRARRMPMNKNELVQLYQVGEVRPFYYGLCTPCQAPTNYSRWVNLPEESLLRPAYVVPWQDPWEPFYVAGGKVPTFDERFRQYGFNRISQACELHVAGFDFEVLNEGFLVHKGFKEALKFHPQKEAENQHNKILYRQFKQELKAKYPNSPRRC
UniProt O75363: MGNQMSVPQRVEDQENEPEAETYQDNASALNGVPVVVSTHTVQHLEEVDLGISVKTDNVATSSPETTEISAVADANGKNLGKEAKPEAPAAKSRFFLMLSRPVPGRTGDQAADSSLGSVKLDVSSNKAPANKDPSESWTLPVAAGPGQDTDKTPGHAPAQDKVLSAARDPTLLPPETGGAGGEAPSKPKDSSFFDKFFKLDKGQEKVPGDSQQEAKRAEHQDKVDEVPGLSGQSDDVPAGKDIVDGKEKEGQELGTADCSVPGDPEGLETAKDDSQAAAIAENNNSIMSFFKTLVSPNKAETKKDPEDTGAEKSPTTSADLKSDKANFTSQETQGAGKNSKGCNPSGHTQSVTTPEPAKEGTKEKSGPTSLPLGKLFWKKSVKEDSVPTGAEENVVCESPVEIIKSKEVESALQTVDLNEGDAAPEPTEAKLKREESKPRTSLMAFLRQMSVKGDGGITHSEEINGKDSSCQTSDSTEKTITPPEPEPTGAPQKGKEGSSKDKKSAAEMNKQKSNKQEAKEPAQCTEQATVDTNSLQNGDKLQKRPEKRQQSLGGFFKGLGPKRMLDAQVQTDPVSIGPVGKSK
UniProt Q9BSF8: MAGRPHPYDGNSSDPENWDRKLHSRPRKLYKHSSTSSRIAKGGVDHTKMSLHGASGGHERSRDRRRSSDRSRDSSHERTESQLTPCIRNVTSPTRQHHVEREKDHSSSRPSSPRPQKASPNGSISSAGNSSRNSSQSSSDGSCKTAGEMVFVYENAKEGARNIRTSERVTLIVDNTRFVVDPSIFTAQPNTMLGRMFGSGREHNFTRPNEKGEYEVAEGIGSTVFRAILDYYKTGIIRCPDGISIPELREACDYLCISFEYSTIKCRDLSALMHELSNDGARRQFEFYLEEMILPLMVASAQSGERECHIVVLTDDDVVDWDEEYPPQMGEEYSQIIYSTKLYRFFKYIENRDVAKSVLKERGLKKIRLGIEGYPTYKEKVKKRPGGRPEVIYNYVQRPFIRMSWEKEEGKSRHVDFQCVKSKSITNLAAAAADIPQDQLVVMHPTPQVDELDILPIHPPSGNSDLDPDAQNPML

silmitasertib = compound: O=C(O)c1ccc2c(c1)nc(Nc1cccc(Cl)c1)c1ccncc12 [silmitasertib]
Procedure, shortened: as §1

[1] = compound: O=C1NC(=O)C(c2cnc3ccccn23)=C1c1cn2c3c(cc(F)cc13)CN(C(=O)N1CCCCC1)CC2
Procedure, shortened: as §1

entospletinib = compound: c1cn2cc(-c3ccc4cn[nH]c4c3)nc(Nc3ccc(N4CCOCC4)cc3)c2n1 [entospletinib]
Procedure, shortened: as §1

Target | log2 fold change (vorinostat) | log2 fold change (silmitasertib) | log2 fold change [1] | log2 fold change (entospletinib)
BHLHE40 (UniProt O14503) | inactive: 0.043 | inactive: 0.052 | inactive: 0.005 | –
BTG3 isoform 2 (UniProt Q14201) | inactive: -0.731 | inactive: -0.149 | – | inactive: 0.002
BTBD2 (UniProt Q9BX70) | inactive: 0.003 | inactive: -0.199 | inactive: -0.05 | inactive: -0.038
BANP isoform 7 (UniProt Q8N9N5) | inactive: -0.013 | inactive: -0.072 | – | inactive: -0.098
BPIFA2 (UniProt Q96DR5) | inactive: 0.129 | inactive: -0.067 | – | inactive: -0.234
BOD1 (UniProt Q96IK1) | – | – | inactive: -0.018 | –
BICRA (UniProt Q9NZM4) | inactive: 0.11 | inactive: -0.203 | inactive: -0.076 | –
BCL7A (UniProt Q4VC05) | – | – | inactive: 0.082 | –
B4GAT1 (UniProt O43505) | inactive: -0.073 | inactive: 0.086 | inactive: -0.035 | –
BCAS1 isoform 2 (UniProt O75363) | – | – | inactive: 0.044 | inactive: -0.092
BTBD10 isoform 2 (UniProt Q9BSF8) | – | – | inactive: 0.002 | –

In another format: results already given.
Target	log2 fold change (vorinostat)	log2 fold change (silmitasertib)	log2 fold change [1]	log2 fold change (entospletinib)
BPIFA2 (UniProt Q96DR5)	inactive: 0.129	inactive: -0.067	–	inactive: -0.234
BOD1 (UniProt Q96IK1)	–	–	inactive: -0.018	–
